Laboratory results reported in publication PMC3999280.
Protein sequences can lack the tags named with them.

Test system: T1, LdtRSmc
T1 sequence (looked up): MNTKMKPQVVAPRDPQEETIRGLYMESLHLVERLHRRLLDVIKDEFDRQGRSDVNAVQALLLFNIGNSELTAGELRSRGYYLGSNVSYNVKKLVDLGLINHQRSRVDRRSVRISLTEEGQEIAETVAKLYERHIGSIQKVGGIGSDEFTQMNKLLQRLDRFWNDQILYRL
Assay: EMSA
Details: EMSA: 50 mM Tris-HCl pH 7.2, 150 mM KCl, 10 mM MgCl2, 0.01% Triton X-100, 12.5 ng/uL each poly(dI-dC) and poly(dA-dT), 1 ng probe in 20 uL, 20 min at 37 C; recombinant protein; residues 1-170; protein details: N-terminal His6 removed by TEV; label: 5' biotin; probe letters rebuilt from the primers and the genome

Sequence	binding result
ACCACGGATGGTTTCTTCCTGCGGGTCTCTGGGCGCAACAACCTGCGGCTTCATCTTGGTGTTCATTTTCGTGCCTCACTGTTTCGTTTGGCGGTGTCTCTTTGTCTTCCCGCCTTGAGTGAGACCCTATCGAATACGTATAAAATTCTACTTAAACCGCAGCCTTAACATGAACTTACCGCGGACCGAGCCTGTCTCAGGGTGAATCAACCCTTACCTTCCGCACCTGGCGCAGTCGCTGATAGAGCAGCGCGGCCCGGAAAAGCACGAAGGTGACGGCGACGGATCCGTGGAGCACGATCAGCAAC (double strand) [PldtRSmc]	binds
CGCGAGAAAGCATCAATTCCGTTCTTTTTCGACATAGTCCCACCGTCTCAATGCGCCAGAAGCGCGCTGCCCGAGCCCTAAAGCGCATAACGCGATGCGCTTTACGTCTTTGCATTCATGCAAGTCGCGTCCCAAAACCGATGTGCGCTTTTGGGCGACATGCATTAGCACGGTCATGGTTAACAAAGGTAAACCCCCGTGCCACCCGGCCCTCAAATCGCTTCACGTTCCCGCGAACAGAGCCGCCCCGGCAGGCGAGCCGCGCAACCGACCTCCGCCATATGGACGTAATCGCGCACCTACCGCACCCAAGCGTCGCTGTCACAGCAATATGGCCAATTCGTGTCTGCGCGCCGCCGGCGGGGCGCAGCGCTGCAACTACATGGCGCGAAAAGCAGCAAAGGTCGGACACGCAGGGATTGCGCCCGACCCTTGAGACTGAAGGTAAACCCGCC (double strand) [PldtPSmc]	binds
